Assay: general procedure: Fmoc solid-phase peptide synthesis in flow; PEG resin; Rink amide, HMPB, photolinker or MeDbz linker
Conditions: whole synthesis, isolated yield after HPLC

B1: MYC[1-84]-MeNbz-Arg6 (peptide, UniProt P01106 1-84, looked up, fragment)
chain: MDFFRVVENQQPPATMPLNVSFTNRNYDLDYDSVQPYFYCDEEENFYQQQQQSELQPPAPSEDIWKKFELLPTPPLSPSRRSGL
modifications: SynTag, thioester
  isolated yield: 0.5%

Source: article PMC11664589 (2024)
